Laboratory results published in the supplement of paper PMC11150407.
Out of some 2,100 compounds screened, about 180 (8.6%) showed an effect of 50% or more. Some of the results follow.

System: MOLM1 and UCSD/AML1 (averaged)
Assay: cell viability relative to DMSO control (POC); higher = less growth inhibition
Details: 1 µM; 72 h
Procedure: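 Primary viability screen in the 3q26 EVI1-high AML cell lines MOLM1 and UCSD/AML1 (1.5e3 cells/well, 384-well), compounds at 1 uM for 72 h. ATP CellTiter-Glo read-out given as percent of viable cells over DMSO control (POC), averaged over duplicates. DMSO was the negative control and 5 uM etoposide the positive control. This mapping covers the MicroSource Spectrum and Selleck anticancer libraries (drug names).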

| SMILES | cell viability |
| --- | --- |
| COc1ccc(C2=N[C@@H](c3ccc(Cl)cc3)[C@@H](c3ccc(Cl)cc3)N2C(=O)N2CCNC(=O)C2)c(OC(C)C)c1 [Nutlin-3] | 74.2% |
| CN/C(=N\CCSCc1nc[nH]c1C)NC#N | 91% |
| N[C@@H](CSCSC[C@H](N)C(=O)O)C(=O)O | 99.3% |
| NC(=O)c1ccc(I)c([N+](=O)[O-])c1 [Iniparib (BSI-201)] | 103% |
| CC(=O)O[C@@H]1C=C[C@]2(C)C(C[C@@H](OC(C)=O)[C@]3(C)C4=CC(=O)O[C@H](c5ccoc5)[C@@]4(C)CCC23)C1(C)C (some centres not stated) | 94.4% |
| O=C(O)c1cc(/N=N/c2ccc(S(=O)(=O)Nc3ccccn3)cc2)ccc1O | 101% |
| C(=C\c1ccccc1)/CN1CCN(C(c2ccccc2)c2ccccc2)CC1 | 97.7% |
| C[C@@H]1C[C@H]2[C@@H]3CCC4=CC(=O)C=C[C@]4(C)[C@@]3(F)[C@@H](O)C[C@]2(C)[C@@]1(O)C(=O)COP(=O)(O)O | 78.1% |
| C[C@]12CC[C@@H]3c4ccc(OC(=O)c5ccccc5)cc4CC[C@H]3[C@@H]1CC[C@@H]2O | 90% |
| Cc1ccc(F)c(NC(=O)Nc2ccc(-c3cccc4[nH]nc(N)c34)cc2)c1 [Linifanib (ABT-869)] | 66.1% |
| CC(C)OC(=O)C1=CN(C(=O)c2ccc(F)c(F)c2)CC(C)(C)c2c1[nH]c1ccccc21 [Turofexorate Isopropyl (XL335)] | 85.6% |
| CN1CCN(C(c2ccccc2)c2ccccc2)CC1 | 102% |
| OCCN(CCO)c1nc(N2CCCCC2)c2nc(N(CCO)CCO)nc(N3CCCCC3)c2n1 | 104% |
| Cc1ccc(NC(=O)c2cccc(C(C)(C)C#N)c2)cc1Nc1ccc2ncn(C)c(=O)c2c1 | 42.7% |
| CC[C@H](CO)Nc1nc(NCc2ccccc2)c2ncn(C(C)C)c2n1 [Roscovitine (Seliciclib, CYC202)] | 106% |
| O=C(O)c1ccccc1C(=O)Nc1ccc(S(=O)(=O)Nc2nccs2)cc1 | 111% |
| C[N+](C)(C)CC(=O)O | 101% |
| NC[C@@H]1O[C@@H](O[C@H]2[C@H](O)[C@@H](O[C@H]3O[C@H](CO)[C@@H](O)[C@H](N)[C@H]3O)[C@H](N)C[C@@H]2N)[C@@H](O)[C@H](O)[C@H]1O | 109% |
| CC1CC(OC(=O)c2ccccc2O)CC(C)(C)C1 (configuration not stated) | 87.2% |
| C[C@H](CCC(=O)O)[C@H]1CC[C@H]2[C@@H]3[C@@H](O)C[C@@H]4C[C@H](O)CC[C@]4(C)[C@H]3CC[C@]12C | 94.9% |
| O=C(CCCN1CCN(c2ccccn2)CC1)c1ccc(F)cc1 | 102% |
| CN1CCC(=C2c3ccccc3Sc3ccccc32)CC1 | 92.2% |

Fetched by structure from the list above:

| SMILES | cell viability |
| --- | --- |
| CN1CCC(=C2c3ccccc3Sc3ccccc32)CC1 | 92.2% |
| C[C@@H]1C[C@H]2[C@@H]3CCC4=CC(=O)C=C[C@]4(C)[C@@]3(F)[C@@H](O)C[C@]2(C)[C@@]1(O)C(=O)COP(=O)(O)O | 78.1% |
